Laboratory results taken from US7968537B2, “Pyrimidine compound and pests controlling composition containing the same” (Sumitomo Chemical Company, Limited, priority 2003, dated 2011).
Some of these results come from one statement about several compounds together.

What follows are compounds tested on brown planthoppers (Nilaparvata lugens) (assay: Test Example 4: brown planthopper larvae on treated rice plants). Settings: 500 ppm, 20 ml/cup on rice plants; thirty first-instar larvae released; 25° C.; 6th day.
Assay type: in vivo
In the case of `CC#CCOc1ncnc(N2CC(C)CC(C)C2)c1F` (stereo not shown) [(51), 4-(2-butynyloxy)-5-fluoro-6-(3,5-dimethylpiperidino)pyrimidine], the “number of parasitic insects on the rice plants” value (“number of parasitic insects” for short) is reported as ≤ 3. With `CC#CCOc1ncnc(N2C(C)CCC2C)c1F` (stereo not shown) [Compound (6), 4-(2-butynyloxy)-5-fluoro-6-(2,5-dimethyl-1-pyrrolidinyl)pyrimidine] the “number of parasitic insects” value was ≤ 3. In the case of `CC#CCOc1cc(N2CC(CC)CC(CC)C2)ncn1` (stereo not shown) [Compound (30), 4-(2-butynyloxy)-6-(3,5-diethylpiperidino)pyrimidine], the “number of parasitic insects” value is reported as ≤ 3. With `CC#CCOc1ncnc(N2CCCC(C)C2)c1F` (stereo not shown) [Compound (3), 4-(2-butynyloxy)-5-fluoro-6-(3-methylpiperidino) pyrimidine] the “number of parasitic insects” value was ≤ 3. `CC#CCOc1ncnc(N2CCCCC2)c1F` [Compound (2), 4-(2-butynyloxy)-5-fluoro-6-piperidinopyrimidine] was tested, and the “number of parasitic insects” value was ≤ 3. For `CC#CCOc1cc(N2CCC(C)CC2)ncn1` [Compound (18), 4-(2-butynyloxy)-6-(4-methylpiperidino) pyrimidine], the “number of parasitic insects” value was ≤ 3. In the case of `CC#CCOc1cc(N2CCCC2)ncn1` [Compound (17), 4-(2-butynyloxy)-6-(1-pyrrolidinyl)pyrimidine], the “number of parasitic insects” value is reported as ≤ 3. `CC#CCOc1cc(N2CCCC(C)(C)C2)ncn1` [Compound (31), 4-(2-butynyloxy)-6-(3,3-dimethylpiperidino)pyrimidine] was tested, and the “number of parasitic insects” value was ≤ 3. In the case of `CCC#CCOc1ncnc(N2CCCCCC2)c1F` [Compound (14), 1-{5-fluoro-6-(2-pentynyloxy)-4-pyrimidinyl}hexahydro-1H-azepine], the “number of parasitic insects” value is reported as ≤ 3. `CCC#CCOc1cc(N2CC(C)CC(C)C2)ncn1` (stereo not shown) [Compound (15), 4-(3,5-dimethylpiperidino)-6-(2-pentynyloxy)pyrimidine] was tested, and the “number of parasitic insects” value was ≤ 3.
